PubChem BioAssay AID1224826 | NIAID, 2016
This is a random part of about 17,000 reagents. About 1,110 of them (6.6%) count as active. 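Active means lowered or raised reporter signal; replicate intensities are raw and not normalised per plate.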 Not all columns of the deposit are shown.

Test: 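Regulators of Tlr4 signalling leading to Tnf-alpha expression in macrophages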 (primary screen)
Cell system: RAW264.7 G9 macrophages from mouse bearing reporters for p65 (GFP) and the Tnf promoter (mCherry)
Reagent: siRNA pool against mouse genes, 100 nM
Timing: 16 h of LPS stimulation, after 2 days of siRNA transfection
Challenge: bacterial lipopolysaccharide (Salmonella minnesota R595), 10 ng/ml
Detection: 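Nuclear mCherry signal of the Tnf promoter reporter measured by imaging after background removal, scaled to each plate median and turned into robust z-scores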
Reading the numbers: Tnf reporter robust z-score: higher = stronger Tnf promoter reporter signal after LPS
Active means: 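a well counts as active at a score of -1.3 or below (Tlr4 knock-down control median) or above 3 (raised signal); controls and wells holding fewer than 50 cells are excluded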
Calls: active = Tnf reporter clearly lowered or raised; inactive = no clear change in Tnf reporter

{"target gene": "Cuedc2 (CUE domain containing 2)", "Tnf reporter robust z-score": -0.58, "fewer than 50 cells in well": "enough cells in well", "Outcome": "inactive"}
{"target gene": "Apobr (apolipoprotein B receptor)", "Tnf reporter robust z-score": -0.55, "fewer than 50 cells in well": "enough cells in well", "Outcome": "inactive"}
{"target gene": "Bcar1 (breast cancer anti-estrogen resistance 1)", "Tnf reporter robust z-score": -0.06, "fewer than 50 cells in well": "enough cells in well", "Outcome": "inactive"}
{"target gene": "Pcdha9 (protocadherin alpha 9)", "Tnf reporter robust z-score": 0.18, "fewer than 50 cells in well": "enough cells in well", "Outcome": "inactive"}
{"target gene": "Or5d46 (olfactory receptor family 5 subfamily D member 46)", "Tnf reporter robust z-score": 0.39, "fewer than 50 cells in well": "enough cells in well", "Outcome": "inactive"}
{"target gene": "Prom1 (prominin 1)", "Tnf reporter robust z-score": -0.51, "fewer than 50 cells in well": "enough cells in well", "Outcome": "inactive"}
{"target gene": "Timm10 (translocase of inner mitochondrial membrane 10)", "fewer than 50 cells in well": "fewer than 50 cells per well; well left out of calls", "Outcome": "inactive"}
{"target gene": "Arid5a (AT-rich interaction domain 5A)", "Tnf reporter robust z-score": -0.14, "fewer than 50 cells in well": "enough cells in well", "Outcome": "inactive"}
{"target gene": "Hpse (heparanase)", "Tnf reporter robust z-score": -0.12, "fewer than 50 cells in well": "enough cells in well", "Outcome": "inactive"}
{"target gene": "Rpl8 (ribosomal protein L8)", "fewer than 50 cells in well": "fewer than 50 cells per well; well left out of calls", "Outcome": "inactive"}
{"target gene": "Zfp385b (zinc finger protein 385B)", "Tnf reporter robust z-score": -0.92, "fewer than 50 cells in well": "enough cells in well", "Outcome": "inactive"}
{"target gene": "Scarf2 (scavenger receptor class F, member 2)", "Tnf reporter robust z-score": -0.76, "fewer than 50 cells in well": "enough cells in well", "Outcome": "inactive"}
{"target gene": "Cercam (cerebral endothelial cell adhesion molecule)", "Tnf reporter robust z-score": -0.06, "fewer than 50 cells in well": "enough cells in well", "Outcome": "inactive"}
{"target gene": "P2rx2 (purinergic receptor P2X, ligand-gated ion channel, 2)", "Tnf reporter robust z-score": 0.44, "fewer than 50 cells in well": "enough cells in well", "Outcome": "inactive"}
{"target gene": "Nrk (Nik related kinase)", "Tnf reporter robust z-score": -1.17, "fewer than 50 cells in well": "enough cells in well", "Outcome": "inactive"}
{"target gene": "Or1o2 (olfactory receptor family 1 subfamily O member 2)", "Tnf reporter robust z-score": 0.16, "fewer than 50 cells in well": "enough cells in well", "Outcome": "inactive"}
{"target gene": "Tbl3 (transducin (beta)-like 3)", "Tnf reporter robust z-score": -0.15, "fewer than 50 cells in well": "enough cells in well", "Outcome": "inactive"}
{"target gene": "Slco3a1", "fewer than 50 cells in well": "fewer than 50 cells per well; well left out of calls", "Outcome": "inactive"}
{"target gene": "Trp53 (transformation related protein 53)", "Tnf reporter robust z-score": -0.81, "fewer than 50 cells in well": "enough cells in well", "Outcome": "inactive"}
{"target gene": "Xkrx (XK related, X-linked)", "Tnf reporter robust z-score": 0.59, "fewer than 50 cells in well": "enough cells in well", "Outcome": "inactive"}
{"target gene": "Cabyr (calcium binding tyrosine phosphorylation regulated)", "Tnf reporter robust z-score": 0.39, "fewer than 50 cells in well": "enough cells in well", "Outcome": "inactive"}
{"target gene": "Ddx3y (DEAD box helicase 3, Y-linked)", "fewer than 50 cells in well": "fewer than 50 cells per well; well left out of calls", "Outcome": "inactive"}
{"target gene": "Cbx1 (chromobox 1)", "Tnf reporter robust z-score": 0.21, "fewer than 50 cells in well": "enough cells in well", "Outcome": "inactive"}
{"target gene": "Gsk3b (glycogen synthase kinase 3 beta)", "Tnf reporter robust z-score": 1.96, "fewer than 50 cells in well": "enough cells in well", "Outcome": "inactive"}
{"target gene": "Atp8a2", "Tnf reporter robust z-score": 0.05, "fewer than 50 cells in well": "enough cells in well", "Outcome": "inactive"}
{"target gene": "Sirpa (signal-regulatory protein alpha)", "Tnf reporter robust z-score": -0.41, "fewer than 50 cells in well": "enough cells in well", "Outcome": "inactive"}
{"target gene": "Rnf10 (ring finger protein 10)", "Tnf reporter robust z-score": 2.61, "fewer than 50 cells in well": "enough cells in well", "Outcome": "inactive"}
